According to paper PMC11212232:
Results are given in words; binding and its absence hold for the method and conditions named. Binding seen in cells or lysates may run through a third protein. These calls come from enrichment with a bait or labelling near it, and not all partners need be listed.

Sequences of proteins named here, by UniProt entry; tags and fusion partners are left off. Residues count along the entry.
UniProt Q9NYB9: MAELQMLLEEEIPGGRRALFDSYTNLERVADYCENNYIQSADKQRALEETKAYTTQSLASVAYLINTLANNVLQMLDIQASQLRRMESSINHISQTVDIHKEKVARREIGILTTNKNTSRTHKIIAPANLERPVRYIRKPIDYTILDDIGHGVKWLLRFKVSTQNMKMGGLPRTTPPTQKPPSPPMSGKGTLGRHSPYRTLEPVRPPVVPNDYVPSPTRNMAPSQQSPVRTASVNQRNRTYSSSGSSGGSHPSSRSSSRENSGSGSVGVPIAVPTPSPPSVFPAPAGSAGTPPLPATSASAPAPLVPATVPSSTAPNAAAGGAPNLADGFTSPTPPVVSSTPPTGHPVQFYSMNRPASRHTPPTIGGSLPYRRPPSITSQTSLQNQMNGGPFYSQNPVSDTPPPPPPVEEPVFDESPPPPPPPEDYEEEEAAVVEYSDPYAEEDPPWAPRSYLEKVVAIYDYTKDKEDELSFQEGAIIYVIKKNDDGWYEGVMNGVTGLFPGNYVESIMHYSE
UniProt Q15418: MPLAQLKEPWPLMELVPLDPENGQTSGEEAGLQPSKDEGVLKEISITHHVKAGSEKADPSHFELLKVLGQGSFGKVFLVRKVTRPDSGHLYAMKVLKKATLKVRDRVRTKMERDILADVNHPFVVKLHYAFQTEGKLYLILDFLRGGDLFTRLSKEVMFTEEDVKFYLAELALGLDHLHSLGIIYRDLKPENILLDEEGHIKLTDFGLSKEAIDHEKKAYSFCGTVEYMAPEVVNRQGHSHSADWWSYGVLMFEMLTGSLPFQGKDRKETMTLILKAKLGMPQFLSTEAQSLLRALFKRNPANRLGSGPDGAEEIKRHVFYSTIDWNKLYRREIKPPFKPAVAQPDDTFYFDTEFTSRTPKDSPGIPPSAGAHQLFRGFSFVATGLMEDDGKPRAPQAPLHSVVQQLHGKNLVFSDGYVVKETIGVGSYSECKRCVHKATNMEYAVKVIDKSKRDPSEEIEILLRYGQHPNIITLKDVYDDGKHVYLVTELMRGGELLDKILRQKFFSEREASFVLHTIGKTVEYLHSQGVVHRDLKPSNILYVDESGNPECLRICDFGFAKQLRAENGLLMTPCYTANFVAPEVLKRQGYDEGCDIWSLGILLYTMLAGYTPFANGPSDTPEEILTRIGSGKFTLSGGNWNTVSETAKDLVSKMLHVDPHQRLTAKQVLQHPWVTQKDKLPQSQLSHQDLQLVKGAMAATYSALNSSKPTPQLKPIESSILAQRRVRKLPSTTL
UniProt Q7L523: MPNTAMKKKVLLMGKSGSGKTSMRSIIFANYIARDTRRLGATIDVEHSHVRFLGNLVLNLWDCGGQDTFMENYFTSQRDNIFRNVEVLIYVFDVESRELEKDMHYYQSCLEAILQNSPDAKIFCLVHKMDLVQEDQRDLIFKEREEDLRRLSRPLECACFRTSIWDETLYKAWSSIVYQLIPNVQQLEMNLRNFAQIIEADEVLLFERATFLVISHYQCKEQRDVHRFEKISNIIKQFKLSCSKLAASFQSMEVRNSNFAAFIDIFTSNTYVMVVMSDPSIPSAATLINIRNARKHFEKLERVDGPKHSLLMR
UniProt P24385: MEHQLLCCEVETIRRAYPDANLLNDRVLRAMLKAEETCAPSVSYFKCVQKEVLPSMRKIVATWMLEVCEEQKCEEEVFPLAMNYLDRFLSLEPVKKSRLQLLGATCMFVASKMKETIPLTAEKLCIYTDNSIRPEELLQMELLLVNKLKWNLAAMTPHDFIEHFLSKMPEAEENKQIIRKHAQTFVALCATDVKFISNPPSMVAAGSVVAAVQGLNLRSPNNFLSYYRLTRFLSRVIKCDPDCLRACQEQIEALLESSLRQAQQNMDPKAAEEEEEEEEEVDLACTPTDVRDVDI
UniProt P21281: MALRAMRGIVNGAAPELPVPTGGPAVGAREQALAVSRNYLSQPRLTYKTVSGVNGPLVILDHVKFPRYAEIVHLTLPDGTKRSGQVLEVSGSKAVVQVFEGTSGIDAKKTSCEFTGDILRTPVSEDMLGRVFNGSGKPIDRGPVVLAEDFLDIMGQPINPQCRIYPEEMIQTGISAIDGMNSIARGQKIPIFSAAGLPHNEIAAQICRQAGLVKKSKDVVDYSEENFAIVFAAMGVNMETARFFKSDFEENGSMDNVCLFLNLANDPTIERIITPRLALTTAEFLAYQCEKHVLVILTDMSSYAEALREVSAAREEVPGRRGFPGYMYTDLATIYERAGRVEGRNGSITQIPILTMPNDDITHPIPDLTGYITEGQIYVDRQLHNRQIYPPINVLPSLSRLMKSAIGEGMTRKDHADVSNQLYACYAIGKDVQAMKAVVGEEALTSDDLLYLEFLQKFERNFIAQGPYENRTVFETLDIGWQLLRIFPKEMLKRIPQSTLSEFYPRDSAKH
UniProt Q9UBS0: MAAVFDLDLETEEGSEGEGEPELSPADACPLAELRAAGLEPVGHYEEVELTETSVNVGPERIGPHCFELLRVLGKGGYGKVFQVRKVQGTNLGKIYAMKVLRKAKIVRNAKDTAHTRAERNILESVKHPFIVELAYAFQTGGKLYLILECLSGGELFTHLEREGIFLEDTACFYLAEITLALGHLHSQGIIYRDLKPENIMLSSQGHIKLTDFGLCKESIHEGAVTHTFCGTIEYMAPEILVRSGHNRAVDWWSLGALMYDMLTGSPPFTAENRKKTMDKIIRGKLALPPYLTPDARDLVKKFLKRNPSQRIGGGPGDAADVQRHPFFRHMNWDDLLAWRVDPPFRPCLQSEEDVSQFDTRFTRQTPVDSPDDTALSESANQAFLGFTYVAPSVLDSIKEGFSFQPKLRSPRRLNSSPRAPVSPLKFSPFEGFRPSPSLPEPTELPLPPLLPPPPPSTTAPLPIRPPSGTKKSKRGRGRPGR
UniProt P62873: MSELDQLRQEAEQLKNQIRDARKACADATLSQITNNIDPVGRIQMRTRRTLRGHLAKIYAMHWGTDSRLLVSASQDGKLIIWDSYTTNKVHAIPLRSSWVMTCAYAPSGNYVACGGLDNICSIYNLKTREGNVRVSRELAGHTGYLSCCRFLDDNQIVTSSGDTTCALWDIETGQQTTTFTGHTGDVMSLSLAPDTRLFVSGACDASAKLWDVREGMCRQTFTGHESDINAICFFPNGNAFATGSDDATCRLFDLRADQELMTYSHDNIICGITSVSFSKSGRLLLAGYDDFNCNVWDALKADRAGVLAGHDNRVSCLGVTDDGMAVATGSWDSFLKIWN
UniProt O60573: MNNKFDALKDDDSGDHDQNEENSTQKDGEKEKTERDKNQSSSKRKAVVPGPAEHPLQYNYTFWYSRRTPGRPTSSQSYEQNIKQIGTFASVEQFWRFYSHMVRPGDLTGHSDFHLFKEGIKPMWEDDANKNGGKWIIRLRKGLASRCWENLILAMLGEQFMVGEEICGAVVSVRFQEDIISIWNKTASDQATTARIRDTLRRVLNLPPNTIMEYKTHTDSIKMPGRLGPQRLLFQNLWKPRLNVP
UniProt P12109, residues 20-1028: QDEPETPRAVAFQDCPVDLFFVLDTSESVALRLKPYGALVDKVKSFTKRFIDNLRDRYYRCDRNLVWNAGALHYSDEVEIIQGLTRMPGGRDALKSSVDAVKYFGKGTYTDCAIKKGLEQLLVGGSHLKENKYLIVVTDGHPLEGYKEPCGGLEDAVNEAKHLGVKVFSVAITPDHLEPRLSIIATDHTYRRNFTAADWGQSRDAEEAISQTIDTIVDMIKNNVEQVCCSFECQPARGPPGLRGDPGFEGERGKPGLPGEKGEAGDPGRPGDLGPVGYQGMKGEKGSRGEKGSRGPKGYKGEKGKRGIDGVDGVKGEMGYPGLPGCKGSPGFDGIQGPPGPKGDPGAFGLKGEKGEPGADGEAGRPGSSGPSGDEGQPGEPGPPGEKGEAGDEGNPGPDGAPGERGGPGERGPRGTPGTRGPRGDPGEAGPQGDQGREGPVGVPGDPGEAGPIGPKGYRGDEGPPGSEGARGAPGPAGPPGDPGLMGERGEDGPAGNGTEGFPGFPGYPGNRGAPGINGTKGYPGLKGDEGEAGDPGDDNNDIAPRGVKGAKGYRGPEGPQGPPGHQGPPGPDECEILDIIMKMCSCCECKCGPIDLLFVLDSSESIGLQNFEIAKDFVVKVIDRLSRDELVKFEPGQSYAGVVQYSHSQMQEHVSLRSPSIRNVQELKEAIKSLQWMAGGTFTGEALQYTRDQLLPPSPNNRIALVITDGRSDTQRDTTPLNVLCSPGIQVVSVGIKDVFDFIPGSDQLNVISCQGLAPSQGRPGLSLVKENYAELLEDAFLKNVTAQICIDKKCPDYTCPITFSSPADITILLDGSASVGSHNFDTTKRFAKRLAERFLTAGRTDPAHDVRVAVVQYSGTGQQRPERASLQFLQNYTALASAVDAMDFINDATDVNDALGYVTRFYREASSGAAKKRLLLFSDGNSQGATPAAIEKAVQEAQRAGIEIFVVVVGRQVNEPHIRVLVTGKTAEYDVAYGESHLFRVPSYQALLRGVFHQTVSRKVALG
UniProt Q9UBI6: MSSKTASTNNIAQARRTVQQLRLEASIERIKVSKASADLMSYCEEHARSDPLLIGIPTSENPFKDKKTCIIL
UniProt Q16864: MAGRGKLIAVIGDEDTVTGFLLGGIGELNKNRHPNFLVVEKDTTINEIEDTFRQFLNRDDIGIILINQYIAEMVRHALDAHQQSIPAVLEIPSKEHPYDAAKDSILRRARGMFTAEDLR

What follows are substances tested against GFP-ABI2 (ABL-interactor 2) (human) (UniProt Q9NYB9) (assay: affinity purification with mass spectrometry; lysate of MDA-MB-231 cells overexpressing GFP-ABI2; anti-GFP or IgG antibodies, Protein A/G magnetic beads, washed with Pierce IP lysis buffer; SDS-PAGE and LC-MS/MS).
In the case of RAF1 (from UniProt P04049 1-648), the binding is reported as “binds”. With RPS6KA1 (from UniProt Q15418 1-735) the binding was “binds”. RRAGA (from UniProt Q7L523 1-313) was tested, and the binding was “binds”. In the case of CCND1 (from UniProt P24385 1-295), the binding is reported as “binds”. ATP6V1B2 (from UniProt P21281 1-511) was tested, and the binding was “binds”. With RPS6KB2 (from UniProt Q9UBS0 1-482) the binding was “binds”. With GNB1 (from UniProt P62873 1-340) the binding was “binds”. With EIF4E2 (from UniProt O60573 1-245) the binding was “binds”. For COL6A1 (from UniProt P12109 20-1028), the binding was “binds”. In the case of GNG12 (from UniProt Q9UBI6 1-72), the binding is reported as “binds”. With ATP6V1F (from UniProt Q16864 1-119) the binding was “binds”.
